Experimental data reported in PubChem BioAssay AID504327 (National Center for Advancing Translational Sciences (NCATS), 2011).
In all, about 390,000 compounds went through this assay and about 820 (0.21%) were called active. Inconclusive results, whose numbers are uncertain, are shown with a selection of clear calls. Calls come from the whole dose curve; as a rule, active = well fitted inhibition curve with a large enough effect; inconclusive = small, poorly fitted or top-dose-only effect, or another doubt; inactive = no such curve, though single readings can be large or run the other way. A potency beside an inconclusive call is a rough fit, not a confirmed value.

The chains behind the UniProt entries cited, without tags or fusion partners.
UniProt Q92830, whole entry, looked up: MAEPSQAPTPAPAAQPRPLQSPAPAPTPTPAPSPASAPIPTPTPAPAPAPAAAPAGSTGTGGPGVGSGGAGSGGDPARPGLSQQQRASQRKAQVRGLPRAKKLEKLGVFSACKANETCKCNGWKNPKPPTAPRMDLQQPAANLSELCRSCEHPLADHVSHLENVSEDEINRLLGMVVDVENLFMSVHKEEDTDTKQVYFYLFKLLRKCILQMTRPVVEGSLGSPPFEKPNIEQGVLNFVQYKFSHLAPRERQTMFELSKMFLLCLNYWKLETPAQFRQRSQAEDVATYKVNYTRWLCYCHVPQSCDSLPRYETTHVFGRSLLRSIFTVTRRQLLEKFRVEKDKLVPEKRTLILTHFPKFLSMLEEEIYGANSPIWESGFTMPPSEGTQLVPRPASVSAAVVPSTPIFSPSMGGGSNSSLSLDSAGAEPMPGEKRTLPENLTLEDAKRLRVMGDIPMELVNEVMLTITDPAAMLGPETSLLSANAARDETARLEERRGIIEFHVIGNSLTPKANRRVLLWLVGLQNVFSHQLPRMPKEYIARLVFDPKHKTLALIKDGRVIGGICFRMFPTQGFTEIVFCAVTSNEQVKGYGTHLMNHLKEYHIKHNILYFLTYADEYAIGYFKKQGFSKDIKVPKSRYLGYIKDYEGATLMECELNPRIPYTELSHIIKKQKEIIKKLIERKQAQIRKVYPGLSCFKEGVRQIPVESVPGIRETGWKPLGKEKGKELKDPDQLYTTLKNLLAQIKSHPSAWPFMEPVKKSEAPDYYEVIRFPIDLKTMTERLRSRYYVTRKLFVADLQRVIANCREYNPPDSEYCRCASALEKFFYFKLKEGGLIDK

biological target: Histone acetyltransferase KAT2A (Homo sapiens) (UniProt Q92830); assay: qHTS Assay for Inhibitors of GCN5L2; conditions: GCN5L2 HAT assay, ThioGlo1 CoA-SH fluorescence; series mostly up to 58.9 µM
Method in brief: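 Enzyme at 20nM final was mixed with library compounds for 15 min at room temperature. Peptide H3(1-25) at 75uM, acetyl-CoA at 70uM and ThioGlo1 at 50uM were then added. Plates were read immediately and after 20 min (Ex340nm/Em540nm).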
Potency is the fitted concentration of half-maximal effect.

**Q.** Which Potency does the source give for `COc1cnc(-c2ccccc2)nc1Oc1ccccc1C` here?
**A.** inconclusive: 7.08 µM [inhibitor, single point]

**Q.** With `COCCCNC(=O)c1cn(C)c(=O)c2c1c1ccccc1n2C` as the molecule, how does the Potency read?
**A.** inactive

**Q.** With `O=C(CCN1C(=O)c2ccccc2S1(=O)=O)N1CCN(c2ccc(F)cc2)CC1` as the molecule, how does the Potency read?
**A.** inconclusive: 10 µM [inhibitor, single point]

**Q.** `COC(=O)C(C)n1cnc2c(nnn2-c2ccccc2)c1=O` (stereo not drawn) was tested. Which Potency did it give?
**A.** inconclusive: 39.8 µM [inhibitor, single point]

**Q.** `CCOc1ccccc1CNc1ccc(O)cc1` was tested. Which Potency did it give?
**A.** inactive

**Q.** With `CN(C)c1ccc(-c2cc(Nc3ccc(F)cc3)ncn2)cc1` as the molecule, how does the Potency read?
**A.** inconclusive: 28.2 µM [inhibitor, single point]

**Q.** Which Potency does the source give for `CC(NC(=O)OCc1ccccc1)C(=O)N1CC(O)CC1C(=O)O` (stereo not drawn) here?
**A.** inconclusive: 35.5 µM [inhibitor, single point]

**Q.** How did the Potency turn out when `COc1ccccc1-c1noc(CCCC(=O)Nc2cccc(C(F)(F)F)c2)n1` was run?
**A.** inactive

**Q.** How did the Potency turn out when `CN(C)c1ccc(/C=N/NC(=O)CNC(=O)/C=C/c2ccccc2)cc1` was run?
**A.** inconclusive: 7.94 µM [inhibitor, full curve, poor fit]

**Q.** Which Potency does the source give for `COc1ccc(/C=C2\N=C(c3ccc(C)cc3)OC2=O)cc1` here?
**A.** inactive

**Q.** For `O=C(CSCc1cccc(Br)c1)NC1CC1`, which Potency is on record?
**A.** inactive

**Q.** With `Cc1ccc(C(=O)N/C(=C\c2ccc(Cl)cc2)C(=O)NC2CCCCC2)cc1` as the molecule, how does the Potency read?
**A.** inactive

**Q.** `C/C(=N\Nc1ccc(Cl)c(C(=O)O)c1)c1cccs1` was tested. Which Potency did it give?
**A.** inactive

**Q.** For `O=C(O)c1ccccc1CSC1=NCCS1`, which Potency is on record?
**A.** inactive

**Q.** With `NCCCC[C@H]1NC(=O)[C@H](CCC(=O)O)NC(=O)c2cc([N+](=O)[O-])cc(I)c2OCC[C@@H](C(N)=O)NC1=O` as the molecule, how does the Potency read?
**A.** inactive

**Q.** `CC(C)(C)c1cc(C(=O)N/N=C/c2ccncc2)n[nH]1` was tested. Which Potency did it give?
**A.** inconclusive: 0.316 µM [inhibitor, full curve, poor fit]

**Q.** For `COc1ccccc1C(=O)Nc1ccc(Br)c2cccnc12`, which Potency is on record?
**A.** inconclusive: 0.794 µM [inhibitor, single point]

**Q.** For `CC[C@]12c3[nH]c4cc(-c5ccco5)ccc4c3CCN1C(=O)[C@@H](CC(=O)NCCC1=CCCCC1)C[C@@H]2C(=O)N1CCN(C(=O)c2ccco2)CC1`, which Potency is on record?
**A.** inconclusive: 28.2 µM [inhibitor, single point]

**Q.** `COc1ccccc1NC(=O)c1cc2ccccc2o/c1=N\O` was tested. Which Potency did it give?
**A.** inconclusive: 39.8 µM [inhibitor, single point]

**Q.** For `CCc1ccc(C2CC(=O)N3CN(c4ccccc4)CSC3=C2C#N)cc1` (stereo not drawn), which Potency is on record?
**A.** inconclusive: 22.4 µM [inhibitor, partial curve]

**Q.** For `CC1(C)CCC(C)(C)c2cc(NC(=O)c3ccc(C(=O)O)cc3)ccc21`, which Potency is on record?
**A.** inconclusive: 39.8 µM [inhibitor, single point]

**Q.** `CCCOc1ccc(C(=O)N/N=C/c2ccc(-c3ccc(S(=O)(=O)Nc4ncccn4)cc3)o2)cc1` was tested. Which Potency did it give?
**A.** inconclusive: 39.8 µM [inhibitor, single point]

**Q.** For `CC(C)(C)NC(=O)NC(=O)COC(=O)COc1ccc(Cl)cc1Cl`, which Potency is on record?
**A.** inconclusive: 0.708 µM [inhibitor, single point]

**Q.** How did the Potency turn out when `Cc1cnc(C(=O)OCc2ccc(Br)cc2)cn1` was run?
**A.** inconclusive: 0.112 µM [inhibitor, full curve, poor fit]

**Q.** `CCOc1ccccc1NC(=S)Nn1cnnc1` was tested. Which Potency did it give?
**A.** inconclusive: 35.5 µM [inhibitor, partial curve]

**Q.** How did the Potency turn out when `O=c1nc2s/c(=C\c3ccc(-c4ccccc4[N+](=O)[O-])o3)c(=O)n2nc1-c1ccccc1` was run?
**A.** inconclusive: 11.2 µM [inhibitor, partial curve]

**Q.** For `CCN(CC)S(=O)(=O)c1ccc(C)c(NC(=O)Cc2ccc(S(=O)(=O)N3CCOCC3)s2)c1`, which Potency is on record?
**A.** inconclusive: 0.112 µM [inhibitor, full curve, poor fit]

**Q.** Which Potency does the source give for `CC(C)[C@H](NC(=O)N1CCn2c1nc1ccccc12)C(=O)N[C@H](Cc1ccccc1)C(=O)O` here?
**A.** inconclusive: 39.8 µM [inhibitor, single point]

**Q.** How did the Potency turn out when `COc1ccccc1N1CCN(C(=O)C2CCC(Cn3c(=S)[nH]c4ccccc4c3=O)CC2)CC1` (stereo not drawn) was run?
**A.** inconclusive: 7.08 µM [inhibitor, single point]

**Q.** For `CCOC(=O)N1CCN(Cc2ccc(O)c3ncccc23)CC1`, which Potency is on record?
**A.** inconclusive: 39.8 µM [inhibitor, single point]

**Q.** For `Cc1ccc(S(=O)(=O)N2[C@@H](c3ccc(Br)cc3)C(C(=O)O)=CC[C@H]2c2ccc(Cl)cc2)cc1`, which Potency is on record?
**A.** inconclusive: 39.8 µM [inhibitor, single point]

**Q.** How did the Potency turn out when `Cc1cccc(N2CCN(C(=O)C3CCN(c4ncnc5c4nc4n5CCCCC4)CC3)CC2C)c1` (stereo not drawn) was run?
**A.** inactive

**Q.** Which Potency does the source give for `Cc1ccc(S(=O)(=O)Nc2ccc3nc(-c4ccc(F)cc4)oc3c2)cc1` here?
**A.** inactive

**Q.** `CC(C)(C)NC(=O)c1oc2ccccc2c1NC(=O)c1ccccc1F` was tested. Which Potency did it give?
**A.** inconclusive: 8.91 µM [inhibitor, single point]

**Q.** Which Potency does the source give for `COc1ccc(C2(CNC(=O)/C=C/c3ccco3)CCCC2)cc1OC` here?
**A.** inconclusive: 2.51 µM [inhibitor, single point]

**Q.** With `CCOC(=O)c1sc2nc(CC(=O)OC)nc(NCCN(CC)CC)c2c1C` as the molecule, how does the Potency read?
**A.** inactive

**Q.** Which Potency does the source give for `Cc1ccc(NC(=O)Cn2cc(S(=O)(=O)Cc3ccc(F)cc3)c3ccccc32)cc1Cl` here?
**A.** inconclusive: 28.2 µM [inhibitor, partial curve]

**Q.** How did the Potency turn out when `Cc1ccc(S(=O)(=O)C(CNC(=O)C(=O)NCCc2ccccc2)c2cccs2)cc1` (stereo not drawn) was run?
**A.** inactive

**Q.** `O=S(=O)(Cc1noc(-c2ccccc2Cl)n1)c1ccccn1` was tested. Which Potency did it give?
**A.** inconclusive: 7.08 µM [inhibitor, single point]

**Q.** Which Potency does the source give for `O=c1ccc2cc3c4c(c2o1)CCCN4CCC3` here?
**A.** inconclusive: 31.6 µM [inhibitor, single point]

**Q.** With `Cc1cc(C)cc(N2CCCn3c2nc2c3c(=O)n(CC(=O)OCc3ccccc3)c(=O)n2C)c1` as the molecule, how does the Potency read?
**A.** inconclusive: 4.47 µM [inhibitor, single point]

**Q.** Which Potency does the source give for `O=c1ccccn1Cc1c(F)cccc1Cl` here?
**A.** inactive

**Q.** For `Cc1cccc(COc2ccc(/C(O)=C3\C(=O)C(=O)N(CCN(C)C)C3c3ccncc3)cc2)c1` (stereo not drawn), which Potency is on record?
**A.** inconclusive: 5.62 µM [inhibitor, single point]
